Results: PMC4912613, “A broad analysis of resistance development in the malaria parasite” (Nature Communications, 2016)

Legend:
Format in all cases: cell-based, Plasmodium falciparum
W2 = assay: Cross-resistance EC50 assay, W2 parent; conditions: hypoxanthine 48-hour assay; synchronized parasites; 96-well format; strain W2F6 (parent)
Excerpt: (§1) Multidrug resistance alleles, including mutations in P. falciparum chloroquine resistance transporter (pfcrt) and P. falciparum multi-drug resistance transporter 1 (pfmdr1) are very common in field isolates. Therefore, we sought to assess the degree to which pre-existing resistance alleles would contribute to a loss of potency for this diverse collection of small molecule compounds. Fifteen clones derived from three main parent lines were chosen to maximize diversity in mutated pathways and genetic backgrounds, thus representing the variety of resistance seen in the field: 3D7 (ref. [23]), W2 (ref. [24]) or Dd2 (ref. [25]). The 3D7 line originates from the clone of a Netherlands clinical isolate strain[23][26] and is generally considered to be drug sensitive, though it does convey resistance to sulfadoxine. Conversely, W2 (ref. [24], [27]) and Dd2 (ref. [25]) are multi-drug-resistant lines originating from the Indochina III/CDC isolate, which contain point mutations in pfcrt as well as amplifications in pfmdr1 and GTP cyclohydrolase.
(§2) To evaluate potential overlapping activity against known antimalarial drug targets, we performed dose-response studies with each compound against our assembled set of drug-resistant lines and their corresponding parents, in an asexual blood stage proliferation assay (Table 1). Comparisons were made to the drug-sensitive strain 3D7 when a parent was unavailable (TM90C2A, W2 and Dd2). As laboratories conducted EC50 assays with different strains and protocols, all comparisons were made between assays from the same laboratory and under the same assay conditions. Compounds displaying >5-fold EC50 shifts relative to the parent or sensitive strain were flagged as having potentially non-novel targets. Average fold shifts per strain ranged from 0.82 to 2.34, with a median of 1.23 indicating there was not common resistance to any one resistant clone. No resistance patterns were observed when classifying the compounds based on chemical structure, but this was not surprising given the diversity of compounds chosen. On the other hand, given that these confirmed compounds were derived from larger unconfirmed hit lists to which some filtration criteria may have been applied (for example, elimination of obvious dihydrofolate reductase inhibitors[32]), some[10][11][12][13] pre-existing bias may exist in the set.
(§3) The 48-h assay was carried out in a 96-well format following standard methods using the ^3H-hypoxanthine incorporation assay. The raw EC50 values corresponding to this assay can be found in Supplementary Data 3. Briefly, this assay relies on the parasite incorporation of labelled hypoxanthine that is proportional to P. falciparum growth. A culture of parasitized RBCs (0.5% parasitemia with a percentage of ring stage higher than 70% of total parasitemia, 2.0% haematocrit) in RPMI-1640, […] and 5 μM hypoxanthine was exposed to drug serial dilutions. Plates were incubated for 24 h at 37 °C, 5% CO2, 5% O2 and 90% N2. After 24 h of incubation, ^3H-hypoxanthine was added and plates were incubated for an additional 24-h period. After that, parasites were harvested on a glass fibre filter using a TOMTEC Cell Harvester 96. Filters were dried and melt-on scintillator sheets were used to determine the incorporation of ^3H-hypoxanthine. Radioactivity was measured using a microbeta counter. Data were normalized using the incorporation of the positive (parasitized RBCs without drug) and negative (same culture with artesunate at 2 μM) controls. All assays were conducted in triplicate using three independently grown cultures, and EC50 values were determined using the XLfit add-in module for Excel (version 2.3.1) from Grafit (version 5.3.1.3), where parameter h is the assay hill slope, x is the compound concentration and y is the inhibition of growth effect. The XLfit equation is: […]
(§4) Alternatively, a SYBR Green-based proliferation approach was used for the 72-h assay, as previously described. […]

[1] = test system: PfATP4-Mut1 (PfATP4 V178I, parent W2); assay: Cross-resistance EC50 assay, PfATP4-Mut1; conditions: hypoxanthine 48-hour assay; synchronized parasites; 96-well format; strain PfATP4 Mut1
Excerpt: as §2, §3
(§5) Alternatively, a SYBR Green-based proliferation approach was used for the 72-h assay, as previously described. Briefly, a culture of either synchronized or asynchronous parasitized RBCs (0.3% parasitemia and 4% haematocrit) in screening medium (identical to supplemented medium above except no serum was added) was exposed to serial drug dilutions. Plates were incubated at 37 °C and gassed with 93% N2, 4% CO2 and 3% O2 for 72 h. Following incubation, 10 × SYBR Green I (Invitrogen; supplied in 10,000 × concentration) in lysis buffer ([…], 5 mM EDTA, 0.16% Saponin wt per vol and 1.6% Triton X vol per vol) was added to the wells and the plates were incubated overnight at room temperature before plate reading. EC50 assays were repeated three times, taking the average EC50 value from each assay set, and removing any outliers using a single iteration of Grubbs' test, eliminating values with z-scores above the critical z-value (α=0.05). The raw EC50 values for synchronized parasites assayed in a 384-well format are listed in Supplementary Data 4. The raw EC50 values for asynchronous parasites assayed in a 96 or 1536-well format are listed in Supplementary Data 5. […]

[2] = test system: PfATP4-Mut2 (PfATP4 P412L, parent W2); assay: Cross-resistance EC50 assay, PfATP4-Mut2; conditions: hypoxanthine 48-hour assay; synchronized parasites; 96-well format; strain PfATP4 Mut2
Excerpt: as §2, §3, §5

3D7 = assay: Cross-resistance EC50 assay, 3D7 parent / sensitive strain
Excerpt: as §1, §2, §3, §4

[3] = test system: TM90C2A (DHFR, folate pathway; compared with 3D7); assay: Cross-resistance EC50 assay, TM90C2A; design: unit not given beside the values; conditions: hypoxanthine 48-hour assay; synchronized parasites; 96-well format; strain TM90C2A
Excerpt: as §2, §3
(§6) EC50 values for each strain were compared with those of the corresponding parent strain to determine fold-shift changes and identify resistance. To minimize the cause variance between assays, all comparisons were conducted between strains assayed under identical conditions. A one-way ANOVA followed by a Dunnet's post-test was conducted in GraphPad Prism to identify significant changes between the parent and resistant strain.

[4] = test system: PfATP4-Mut3 (PfATP4 F917L, parent 3D7); assay: Cross-resistance EC50 assay, PfATP4-Mut3; conditions: hypoxanthine 48-hour assay; synchronized parasites; 96-well format; strain PfATP4 Mut3
Excerpt: as §2, §3, §5

[5] = test system: GNF449-R2 (PfATP4 I203L and P990R, parent Dd2); assay: Cross-resistance EC50 assay, GNF449-R2; conditions: SYBR green 72 hour assay, asynchronized parasites, 96-well or 1536-well format
Excerpt: as §2, with “set. […]” for “set.”
(§7) Alternatively, a SYBR Green-based proliferation approach was used for the 72-h assay, as previously described. Briefly, a culture of either synchronized or asynchronous parasitized RBCs (0.3% parasitemia and 4% haematocrit) in screening medium (identical to supplemented medium above except no serum was added) was exposed to serial drug dilutions. Plates were incubated at 37 °C and gassed with 93% N2, 4% CO2 and 3% O2 for 72 h. Following incubation, 10 × SYBR Green I (Invitrogen; supplied in 10,000 × concentration) in lysis buffer ([…], 5 mM EDTA, 0.16% Saponin wt per vol and 1.6% Triton X vol per vol) was added to the wells and the plates were incubated overnight at room temperature before plate reading. EC50 assays were repeated three times, taking the average EC50 value from each assay set, and removing any outliers using a single iteration of Grubbs' test, eliminating values with z-scores above the critical z-value (α=0.05). The raw EC50 values for synchronized parasites assayed in a 384-well format are listed in Supplementary Data 4. The raw EC50 values for asynchronous parasites assayed in a 96 or 1536-well format are listed in Supplementary Data 5.
as §6

[6] = test system: GNF156R (PfCARL L830V, S1076I and M81I, parent Dd2); assay: Cross-resistance EC50 assay, GNF156R; conditions: SYBR green 72 hour assay, asynchronized parasites, 96-well or 1536-well format
Excerpt: as §2, with “set. […]” for “set.”
as §7, §6

[7] = test system: CYTb-G131S (cytb G131S, parent Dd2); assay: Cross-resistance EC50 assay, CYTb-G131S; conditions: SYBR green 72 hour assay; synchronized parasites; 384-well format; CYTb:G131S strain
Excerpt: as §2, with “set. […]” for “set.”
as §7, §6

[8] = test system: ATQ-R4 (cytb M133I and L144S, parent 3D7); assay: Cross-resistance EC50 assay, ATQ-R4; conditions: SYBR green 72 hour assay, asynchronized parasites, 96-well or 1536-well format
Excerpt: as §2, with “set. […]” for “set.”
as §7, §6

[9] = test system: ProRS (prolyl t-RNA synthetase L482H, parent Dd2); assay: Cross-resistance EC50 assay, ProRS; conditions: SYBR green 72 hour assay; synchronized parasites; 384-well format; ProRS strain
Excerpt: as §2, with “set. […]” for “set.”
as §7, §6

Dd2 = assay: Cross-resistance EC50 assay, Dd2 parent; conditions: SYBR green 72 hour assay, Dd2 parent
Excerpt: as §1
as §2, with “set. […]” for “set.”
as §7, §6

[10] = test system: CYTbQi (cytb G33A, parent Dd2); assay: Cross-resistance EC50 assay, CYTbQi; conditions: SYBR green 72 hour assay; synchronized parasites; 384-well format; CYTbQi strain
Excerpt: as §2, with “set. […]” for “set.”
as §7, §6

[11] = test system: DHODH (E182D, parent 3D7); assay: Cross-resistance EC50 assay, DHODH; conditions: SYBR green 72 hour assay; synchronized parasites; 384-well format; DHODH strain
Excerpt: as §2, with “set. […]” for “set.”
as §7, §6

[12] = test system: ATQ-R5 (cytb F267V, parent 3D7); assay: Cross-resistance EC50 assay, ATQ-R5; conditions: SYBR green 72 hour assay, asynchronized parasites, 96-well or 1536-well format
Excerpt: as §2, with “set. […]” for “set.”
as §7, §6

hsp90 (D88Y, parent Dd2) = assay: Cross-resistance EC50 assay, hsp90; conditions: SYBR green 72 hour assay; synchronized parasites; 384-well format; HSP90 strain
Excerpt: as §2, with “set. […]” for “set.”
as §7, §6

[13] = test system: NITD609-R2 (PfATP4 T418N and P990R, parent Dd2); assay: Cross-resistance EC50 assay, NITD609-R2; conditions: SYBR green 72 hour assay, asynchronized parasites, 96-well or 1536-well format
Excerpt: as §2, with “set. […]” for “set.”
as §7, §6

PfCRT-Q352R (parent Dd2) = assay: Cross-resistance EC50 assay, PfCRT-Q352R; conditions: SYBR green 72 hour assay; synchronized parasites; 384-well format; PfCRT:Q352R strain
Excerpt: as §2, with “set. […]” for “set.”
as §7, §6

COc1ccc(NC(=O)N2CCCCN3[C@H](CO)[C@H](c4ccc(C#Cc5ccccc5)cc4)[C@@H]3C2)cc1 [BRD3444]
W2F6 (PARENT) Average Hill Slope (W2): 2.25 | PfATP4 Mut1 (W2F6 Parent) Average Hill Slope [1]: 2.07 | PfATP4 Mut2 (W2F6 Parent) Average Hill Slope [2]: 1.12 | 3D7 (PARENT) Average Hill Slope (3D7; hypoxanthine 48-hour assay, synchronized parasites, 96-well format, strain 3D7 (parent)): 1.47 | 3D7-C9-WT (PARENT) Average Hill Slope (3D7; hypoxanthine 48-hour assay, synchronized parasites, 96-well format, strain 3D7-C9-WT (parent of PfATP4 Mut3)): 1.43 | TM90C2A (3D7 Parent) Average Hill Slope [3]: 1.64 | PfATP4 Mut3 (3D7-C9-WT Parent) Average Hill Slope [4]: 1.97

COc1ccc(NC(=O)N2CCCCN3[C@H](CN)[C@H](c4ccc(C#Cc5ccccc5)cc4)[C@@H]3C2)cc1 [BRD1095]
GNF449-R2 (Dd2 Parent) Average Hill Slope [5]: 1.25 | GNF156R (Dd2 Parent) Average Hill Slope [6]: 1.06 | CYTb:G131S (Dd2 Parent) Average Hill Slope [7]: 7.39 | ATQ-R4 (3D7 Parent) Average Hill Slope [8]: 1.04 | ProRS (Dd2 Parent) Average Hill Slope [9]: 5.26 | Dd2 (PARENT) Average Hill Slope (Dd2; asynchronized parasites, 96-well or 1536-well format): 1.89 | Dd2 (PARENT) Average Hill Slope (Dd2; synchronized parasites, 384-well format): 5.26 | CYTbQi (Dd2 Parent) Average Hill Slope [10]: 5.92 | 3D7 (PARENT) Average Hill Slope (3D7; SYBR green 72 hour assay, asynchronized parasites, 96-well or 1536-well format, 3D7 parent): 1.66 | 3D7 (PARENT) Average Hill Slope (3D7; SYBR green 72 hour assay, synchronized parasites, 384-well format, 3D7 parent): 7.84 | DHODH (3D7 Parent) Average Hill Slope [11]: 6.37 | ATQ-R5 (3D7 Parent) Average Hill Slope [12]: 0.98 | HSP90 (Dd2 Parent) Average Hill Slope (hsp90 (D88Y, parent Dd2)): 5.26 | NITD609-R2 (Dd2 Parent) Average Hill Slope [13]: 1.64 | PfCRT:Q352R (Dd2 Parent) Average Hill Slope (PfCRT-Q352R (parent Dd2)): 4.36
